# Measurements as given in the supplement of paper PMC6411743.
# Chains of the proteins cited; added tags and fusions are not shown. Lines headed by an entry give the natural chain unless they say otherwise; changes in a name come on top.
# UniProt Q9NVX2: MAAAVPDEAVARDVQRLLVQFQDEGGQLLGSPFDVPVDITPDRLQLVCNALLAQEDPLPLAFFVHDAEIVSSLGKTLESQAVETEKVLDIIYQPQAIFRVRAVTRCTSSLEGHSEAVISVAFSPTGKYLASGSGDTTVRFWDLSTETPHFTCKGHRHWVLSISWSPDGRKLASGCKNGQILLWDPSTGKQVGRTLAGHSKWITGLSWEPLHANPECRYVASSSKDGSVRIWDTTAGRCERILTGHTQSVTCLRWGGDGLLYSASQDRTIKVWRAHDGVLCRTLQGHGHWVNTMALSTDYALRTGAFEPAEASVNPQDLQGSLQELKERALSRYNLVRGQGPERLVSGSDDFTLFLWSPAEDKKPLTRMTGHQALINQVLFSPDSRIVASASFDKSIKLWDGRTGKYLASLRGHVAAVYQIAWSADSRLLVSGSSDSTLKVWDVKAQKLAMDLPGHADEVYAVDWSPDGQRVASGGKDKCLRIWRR
# UniProt Q9NY97: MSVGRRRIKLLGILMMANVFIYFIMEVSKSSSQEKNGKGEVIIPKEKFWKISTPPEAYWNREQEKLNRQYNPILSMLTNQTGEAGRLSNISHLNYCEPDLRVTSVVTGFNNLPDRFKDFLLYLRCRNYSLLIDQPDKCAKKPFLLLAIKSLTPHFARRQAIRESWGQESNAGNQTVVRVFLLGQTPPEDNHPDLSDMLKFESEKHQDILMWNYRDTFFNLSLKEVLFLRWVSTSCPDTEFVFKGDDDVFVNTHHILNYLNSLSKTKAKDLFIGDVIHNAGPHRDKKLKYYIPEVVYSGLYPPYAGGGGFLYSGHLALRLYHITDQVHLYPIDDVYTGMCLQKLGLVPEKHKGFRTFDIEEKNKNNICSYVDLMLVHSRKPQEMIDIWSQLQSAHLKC
# UniProt Q9P2J5: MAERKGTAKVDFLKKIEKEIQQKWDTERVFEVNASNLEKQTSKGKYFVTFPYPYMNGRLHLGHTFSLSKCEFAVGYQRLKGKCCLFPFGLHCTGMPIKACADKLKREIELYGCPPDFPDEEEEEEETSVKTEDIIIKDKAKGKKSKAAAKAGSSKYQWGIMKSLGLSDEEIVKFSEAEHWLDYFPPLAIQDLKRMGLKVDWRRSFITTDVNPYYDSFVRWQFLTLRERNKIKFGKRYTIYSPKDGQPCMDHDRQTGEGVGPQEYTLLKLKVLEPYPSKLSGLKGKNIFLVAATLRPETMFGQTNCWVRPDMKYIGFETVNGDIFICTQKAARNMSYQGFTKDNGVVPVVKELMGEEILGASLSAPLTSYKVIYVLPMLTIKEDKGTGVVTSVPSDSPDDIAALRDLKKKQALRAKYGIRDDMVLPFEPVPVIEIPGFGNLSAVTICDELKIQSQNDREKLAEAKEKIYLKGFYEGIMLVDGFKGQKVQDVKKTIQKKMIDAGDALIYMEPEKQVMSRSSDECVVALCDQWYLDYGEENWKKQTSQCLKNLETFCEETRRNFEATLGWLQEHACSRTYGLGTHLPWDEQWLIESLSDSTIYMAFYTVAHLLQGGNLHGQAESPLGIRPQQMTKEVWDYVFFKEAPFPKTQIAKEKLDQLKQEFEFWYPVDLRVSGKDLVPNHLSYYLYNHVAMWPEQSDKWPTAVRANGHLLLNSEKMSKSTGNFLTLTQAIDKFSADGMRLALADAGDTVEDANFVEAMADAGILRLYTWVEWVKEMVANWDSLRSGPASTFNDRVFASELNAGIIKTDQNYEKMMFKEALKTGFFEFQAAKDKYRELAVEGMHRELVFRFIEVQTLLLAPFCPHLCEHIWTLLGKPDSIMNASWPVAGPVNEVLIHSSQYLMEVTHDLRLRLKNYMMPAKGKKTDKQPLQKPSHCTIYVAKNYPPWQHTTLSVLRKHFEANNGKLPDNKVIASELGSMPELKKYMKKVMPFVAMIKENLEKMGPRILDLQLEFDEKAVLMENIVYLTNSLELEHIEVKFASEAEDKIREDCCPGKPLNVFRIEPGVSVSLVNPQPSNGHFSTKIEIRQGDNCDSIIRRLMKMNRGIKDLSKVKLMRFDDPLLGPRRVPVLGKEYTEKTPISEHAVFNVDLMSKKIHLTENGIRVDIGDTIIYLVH
# UniProt Q9NVT9: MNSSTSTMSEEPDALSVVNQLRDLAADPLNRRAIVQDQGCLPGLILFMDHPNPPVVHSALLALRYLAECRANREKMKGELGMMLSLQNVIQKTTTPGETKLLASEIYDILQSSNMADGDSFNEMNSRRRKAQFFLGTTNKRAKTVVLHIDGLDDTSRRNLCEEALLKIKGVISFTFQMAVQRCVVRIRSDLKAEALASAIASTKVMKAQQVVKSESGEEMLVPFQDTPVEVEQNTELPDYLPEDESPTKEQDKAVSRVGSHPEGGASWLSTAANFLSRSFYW
# UniProt Q9NVH2, whole entry: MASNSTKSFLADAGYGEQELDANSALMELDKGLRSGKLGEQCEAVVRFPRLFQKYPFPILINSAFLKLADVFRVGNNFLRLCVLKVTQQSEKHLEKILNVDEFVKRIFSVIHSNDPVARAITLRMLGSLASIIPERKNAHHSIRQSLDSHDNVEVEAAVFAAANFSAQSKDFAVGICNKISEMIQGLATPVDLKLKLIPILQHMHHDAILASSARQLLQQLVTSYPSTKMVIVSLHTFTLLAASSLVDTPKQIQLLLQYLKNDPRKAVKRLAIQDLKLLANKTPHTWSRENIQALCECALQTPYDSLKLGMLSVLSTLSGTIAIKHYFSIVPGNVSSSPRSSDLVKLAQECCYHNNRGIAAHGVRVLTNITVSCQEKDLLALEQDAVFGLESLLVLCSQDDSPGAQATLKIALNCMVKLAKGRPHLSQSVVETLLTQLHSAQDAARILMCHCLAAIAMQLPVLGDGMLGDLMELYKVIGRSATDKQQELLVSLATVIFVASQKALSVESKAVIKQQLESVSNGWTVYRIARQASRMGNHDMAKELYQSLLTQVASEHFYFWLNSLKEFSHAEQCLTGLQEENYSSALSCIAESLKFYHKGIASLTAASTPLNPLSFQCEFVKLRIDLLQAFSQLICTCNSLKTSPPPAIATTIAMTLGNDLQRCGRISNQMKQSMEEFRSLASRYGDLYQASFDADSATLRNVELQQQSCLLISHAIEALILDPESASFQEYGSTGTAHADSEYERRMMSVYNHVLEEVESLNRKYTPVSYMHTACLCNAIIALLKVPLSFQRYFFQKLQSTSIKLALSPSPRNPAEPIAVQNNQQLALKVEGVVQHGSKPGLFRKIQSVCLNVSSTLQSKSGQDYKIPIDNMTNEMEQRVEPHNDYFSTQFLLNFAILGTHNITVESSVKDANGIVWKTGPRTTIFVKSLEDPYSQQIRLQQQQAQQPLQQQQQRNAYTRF
# ± gives the standard deviation of the averaged measurements. The list shows a part of the results.
# Compound: Nc1nc2c(ncn2[C@@H]2O[C@H](COP(=O)(O)OP(=O)(O)OP(=O)(O)O)[C@@H](O)[C@H]2O)c(=O)[nH]1 [guanosine triphosphate]
# Assay: NP40-soluble protein abundance relative to vehicle (solubility fold change) (ratio); higher = more soluble protein in presence of GTP
# Method: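 Solubility proteome profiling in Jurkat crude lysate. Lysate was treated with Mg-GTP (0.1-10 mM) for 10 min at room temperature and 3 min at 37 °C, then solubilised with 0.8% NP40 and benzonase, followed by ultracentrifugation. Proteins were quantified by TMT10 LC-MS/MS; the value is the NP40-soluble abundance relative to the NP40-processed vehicle, from 3 independent experiments.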
Target,NP40-soluble protein abundance (concentration: 0.1mM),NP40-soluble protein abundance (concentration: 0.5mM),NP40-soluble protein abundance (concentration: 1mM),NP40-soluble protein abundance (concentration: 2mM),NP40-soluble protein abundance (concentration: 4mM),NP40-soluble protein abundance (concentration: 6mM),NP40-soluble protein abundance (concentration: 8mM),NP40-soluble protein abundance (concentration: 10mM)
UniProt Q9NVX2 and related entries,1.01 ± 0.043,1.03 ± 0.066,0.9298 ± 0.0041,0.934 ± 0.098,0.934 ± 0.053,0.934 ± 0.036,0.897 ± 0.033,0.87 ± 0.087
UniProt Q9NY97 and related entries,0.997 ± 0.064,0.898 ± 0.02,0.909 ± 0.089,0.937 ± 0.012,0.93 ± 0.016,0.915 ± 0.069,0.841 ± 0.065,0.924 ± 0.029
LARS (UniProt Q9P2J5),1.05 ± 0.078,1.13 ± 0.15,1.07 ± 0.18,1.17 ± 0.26,1.2 ± 0.26,1.21 ± 0.28,1.16 ± 0.24,1.09 ± 0.23
ARMC1 (UniProt Q9NVT9),0.884 ± 0.035,0.878 ± 0.037,0.847 ± 0.056,0.831 ± 0.04,0.827 ± 0.073,0.844 ± 0.042,0.771 ± 0.089,0.808 ± 0.069
UniProt Q9NVH2 and related entries,1.09 ± 0.051,1.01 ± 0.046,1.09 ± 0.09,1.13 ± 0.14,1.2 ± 0.13,1.15 ± 0.15,1.18 ± 0.15,1.16 ± 0.14
